Source: PubChem BioAssay AID1347075 (National Center for Advancing Translational Sciences (NCATS), 2019)
The campaign covered roughly 400,000 compounds. About 5,500 (1.4%) were called active. The shares of active, inactive and inconclusive entries below differ from those in the screen. Calls come from the whole dose curve; as a rule, active = well fitted cell-killing curve with a large enough effect; inconclusive = small, poorly fitted or top-dose-only effect, or effect the other way; inactive = flat fitted curve, though single readings scatter. Potencies beside an inconclusive call are fits to weak or partial responses and may not hold up.

assay: qHTS assay for MDR1-selective chemotherapeutics: Primary screen using the parental adenocarcinoma cell KB-3-1; conditions: KB-3-1 viability, CellTiter-Glo ATP luminescence, 72 h; activity change, negative = cytotoxic: at 46.1 µM (top of the series); note: nearly all actives have a fitted effect of over 60% in size
How it was run: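 Using CellTiter-Glo luminescence, growth of non-resistant KB-3-1 adenocarcinoma cells is assessed 72 h after pin-tool compound addition at 37 °C. Normalized responses across the concentration series yield fitted curves.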
% is set by controls: 0 for no effect and ±100 for the full control effect; potency is the fitted concentration of half-maximal effect.

SMILES	activity change, negative = cytotoxic	Potency
COc1ccc(NC(=O)N(CCC(C)C)C(C)c2ccccn2)c(OC)c1 (stereo not given)	inactive: -1.64%	
CSc1sc(C(=O)NNC(C)=O)c2c1C=CCC2	inactive: 3.23%	
CC(C)[C@H](NC(=O)OCc1ccccc1)C(=O)OCC(=O)N1C(C)CCCC1C (stereo not given in full)		inconclusive: 32.6 µM [rising, single point]
COc1ccc(-c2noc(-c3ccc(N4CCN(c5ccc(OC)cc5)CC4)c([N+](=O)[O-])c3)n2)cc1	inactive: -8.1%	
CCCOc1ccc(F)cc1-c1cc(C(=O)NCCOC)[nH]n1	inactive: 0%	
CC(=O)c1ccc(NC(=O)C(C)OC(=O)/C=C/c2ccco2)cc1 (stereo not given)		inconclusive: 25.9 µM [cytotoxic, single point]
CC1(C(=O)Nc2ccc(S(=O)(=O)Nc3ncccn3)cc2)CCCC1		inconclusive: 18.4 µM [rising, single point]
CCOC(=O)c1c(C)[nH]c(C)c1C(=O)COc1ncnc2cc([N+](=O)[O-])ccc12		inconclusive: 1.84 µM [rising, partial curve, poor fit]
O=C(COC(=O)CCC(=O)c1ccc(F)cc1)NCCc1ccccc1		inconclusive: 29.1 µM [rising, single point]
Cc1cc(C(=O)CN2C(=O)NC3(CCCC3)C2=O)c(C)n1-c1ccc2c(c1)OCO2		inconclusive: 2.91 µM [rising, partial curve, poor fit]
COc1ccccc1-c1nc(C#N)c(N2CCC(Cc3ccccc3)CC2)o1		inconclusive: 29.1 µM [cytotoxic, single point]
COc1ccc(Nc2cc(C(=O)N3CCc4ccccc4C3)c3ccccc3n2)c(OC)c1		inconclusive: 29.1 µM [cytotoxic, single point]
Brc1ccc(OCc2ccccc2)c(CNCc2ccncc2)c1		inconclusive: 11.6 µM [cytotoxic, partial curve]
COc1ccccc1NC(=O)c1c(Br)cnn1C		inconclusive: 32.6 µM [cytotoxic, single point]
CCCn1c(N2CCN(CC(=O)c3c(C)n(C)c4ccccc34)CC2)nc2c1c(=O)[nH]c(=O)n2C		inconclusive: 23.1 µM [cytotoxic, partial curve, poor fit]
COc1ccc(/C=N/NC(=O)CCn2cnc(-c3ccccc3)c2-c2ccccc2)cc1OC		active: 6.51 µM
CCCN(CC(=O)Nc1ccc(F)c(F)c1F)C(=O)CCc1nc2ccccc2c(=O)[nH]1		inconclusive: 29.1 µM [rising, single point]
COc1ccc2c(c1)OC(=O)CC2c1cc(OC)c(OC)c(OC)c1 (stereo not given)		inconclusive: 18.4 µM [cytotoxic, single point]
COc1ccc(OC)c(C(C[N+](=O)[O-])c2c(C)cc3ccccn23)c1 (stereo not given)		inconclusive: 29.1 µM [cytotoxic, single point]
O=C(NCc1ccccc1)C1=C[C@H](c2ccc3c(c2)OCO3)C[C@H](OCc2ccc(CO)cc2)O1		inconclusive: 7.31 µM [cytotoxic, partial curve, poor fit]
Cc1ccc(NC(=O)c2ccc(NS(=O)(=O)c3cccc4cccnc34)cc2)cc1		inconclusive: 29.1 µM [cytotoxic, single point]
CCOC(=O)c1ccc(Oc2cn[nH]c2-c2ccc(O)cc2O)cc1		active: 23.1 µM

Whole records as entered above:
COc1ccc2c(c1)OC(=O)CC2c1cc(OC)c(OC)c(OC)c1 (stereo not given) is listed as Potency: inconclusive: 18.4 µM [cytotoxic, single point]
COc1ccccc1NC(=O)c1c(Br)cnn1C is listed as Potency: inconclusive: 32.6 µM [cytotoxic, single point]
CSc1sc(C(=O)NNC(C)=O)c2c1C=CCC2 is listed as activity change, negative = cytotoxic: inactive: 3.23%
Cc1cc(C(=O)CN2C(=O)NC3(CCCC3)C2=O)c(C)n1-c1ccc2c(c1)OCO2 is listed as Potency: inconclusive: 2.91 µM [rising, partial curve, poor fit]

Following part

SMILES	activity change, negative = cytotoxic	Potency
COC(=O)c1cc(C#N)c(Oc2ccccc2OC)nc1C		inconclusive: 25.9 µM [cytotoxic, partial curve, poor fit]
CCNc1nc(NCC)nc(SCCOc2ccc(C)cc2)n1		inconclusive: 29.1 µM [cytotoxic, single point]
COC(=O)C1=C(C)N(Cc2ccccc2)C(=NCc2ccccc2)N[C@H]1c1cccc(F)c1	inactive: -4.25%	
COc1cc(OC)cc(C2=Cc3ccccc3C(CC(=O)c3ccco3)N2c2ccc(-c3ccc(C(N)=O)cc3)cc2)c1 (stereo not given)		inconclusive: 29.1 µM [cytotoxic, single point]
Cc1cccc(Nc2nnc(SC/C(O)=C(\C#N)c3nc4ccccc4[nH]3)s2)c1		inconclusive: 14.6 µM [rising, single point]
COCc1cc(=O)n2[nH]c(C)c(-c3ccc(Cl)cc3)c2n1		inconclusive: 20.6 µM [cytotoxic, single point]
Cc1ccc(C)c(Oc2cc(NC(=O)CCCn3nc(C)c([N+](=O)[O-])c3C)cc([N+](=O)[O-])c2)c1		inconclusive: 29.1 µM [cytotoxic, partial curve, poor fit]
O=C(NC1CCCCC1)N1CCSC1=Nc1ccccc1		inconclusive: 29.1 µM [cytotoxic, single point]
O=C(COc1ccccc1)NCc1ccc2c(c1)CCN2C(=O)c1ccccc1		inconclusive: 18.4 µM [cytotoxic, single point]
Cc1ccc(N(C)S(=O)(=O)c2ccc3[nH]c4c(c3c2)CCCC4)cc1	inactive: -15.8%	
CCc1ccc(N/C(N)=N/c2nc(CSc3ccccn3)cc(=O)[nH]2)cc1		inconclusive: 18.4 µM [cytotoxic, partial curve, poor fit]
O=C(c1cc(Sc2ccc(Cl)cc2)nc2ccccc12)N1CCN(c2ccccn2)CC1	inactive: -13.6%	
O=C1C=C(c2ccc3ncccc3c2)C[C@@H](c2ccc(Cl)cc2)C1		inconclusive: 18.4 µM [cytotoxic, single point]
Cn1nnnc1SCCNCc1ccc(OCc2ccccc2Cl)cc1		active: 23.1 µM
O=C1OCCN1C(=O)[C@H]1[C@H](c2ccc(F)cc2)C(c2ccccc2)=NN1c1ccccc1	inactive: -11%	
Cc1cccc(N2CCN(CCCNC(=O)C3CCCN(c4ncnc5c4nc4n5CCCCC4)C3)CC2C)c1 (stereo not given)		inconclusive: 18.4 µM [cytotoxic, single point]
COc1ccc(C2CC(c3cccc(C(F)(F)F)c3)=NN2c2ccc(S(N)(=O)=O)cc2)cc1 (stereo not given)		inconclusive: 16.4 µM [cytotoxic, single point]
O=C(CC(Nc1ccc(F)cc1)C(=O)OCC(=O)c1cccs1)c1ccccc1 (stereo not given)	inactive: 4.35%	
COc1ccc(-c2cn3cc(C(F)(F)F)cc(Cl)c3n2)cc1		inconclusive: 9.2 µM [cytotoxic, partial curve, poor fit]
CCC(C)[C@H](NC(=O)N1CCn2c1nc1ccccc12)C(=O)NCCc1ccc(OC)c(OC)c1 (stereo not given in full)	inactive: 1.09%	
O=C(NNc1nc(-c2ccc(Cl)cc2)cs1)c1ccco1		inconclusive: 29.1 µM [cytotoxic, single point]
COc1ccc(C2=NN(C(=O)/C=C/c3ccccc3)C(c3ccccc3)C2)c(OC(C)=O)c1 (stereo not given)		inconclusive: 29.1 µM [cytotoxic, single point]

SMILES	activity change, negative = cytotoxic	Potency
CCCC(=O)NC(Nc1cc(C(F)(F)F)ccc1Cl)C(Cl)(Cl)Cl (stereo not given)		inconclusive: 29.1 µM [cytotoxic, single point]
C=CC[C@H](CC(=O)N(CCO)Cc1ccccc1)C(=O)N[C@@H](COC(=O)[C@@H](CC=C)Cc1ccc(F)cc1)Cc1ccccc1		inconclusive: 29.1 µM [cytotoxic, single point]
CC(C)Oc1ccc(C(=O)Nc2ccc3c(c2)CCCN3C(=O)c2cccs2)cc1		active: 6.51 µM
CC1(C)CC(=O)C2=C(C1)NC1=C(C(=O)c3ccccc31)C2c1ccccc1 (stereo not given)		inconclusive: 29.1 µM [cytotoxic, single point]
Cn1c(C(=O)N2CCCC(C(=O)NCc3ccccc3)C2)cc2sccc21 (stereo not given)		inconclusive: 18.4 µM [cytotoxic, partial curve]
Fc1cccc(Cc2noc(CN3CCC(c4ccncc4)CC3)n2)c1		inconclusive: 23.1 µM [cytotoxic, partial curve, poor fit]
CCN(CC(=O)Nc1cc(S(=O)(=O)N2CCOCC2)ccc1C)Cc1ccccc1		inconclusive: 29.1 µM [cytotoxic, partial curve, poor fit]
Cn1nc(C(F)(F)F)c2cc(C(=O)Nc3ccc(F)c(Cl)c3)sc21		inconclusive: 29.1 µM [cytotoxic, single point]
CCOc1ccc(CCNC(=O)C2CCN(c3nn4c(=O)cc(C)nc4s3)CC2)cc1OCC	inactive: -6.64%	
Cc1ccc2oc(=O)c3cc(C(=O)Nc4ccc(F)cc4F)sc3c2c1	inactive: -12.2%	
COc1cccc(CNc2ccc(F)c(Cl)c2)c1O	inactive: 9.42%	
COc1ccccc1OCCn1c(=S)[nH]c2ccccc21		inconclusive: 29.1 µM [cytotoxic, single point]
O=C(OCC(=O)N1CCc2ccccc2C1)c1ccc(O)cc1	inactive: -5.35%	
Cc1ccccc1-c1nnn(CC(=O)N2CCN(C(=O)c3ccco3)CC2)n1		inconclusive: 16.4 µM [rising, partial curve, poor fit]
CCN(CC(=O)Nc1ccc(OC)cc1)C(=O)c1ccc(Cl)c(S(=O)(=O)N2CCCC2)c1		inconclusive: 20.6 µM [rising, single point]
NC(=S)NN=C1CSSC1		inconclusive: 20.6 µM [cytotoxic, single point]
Cc1ccc(C(=O)Nc2cccc(C(=O)NCc3ccccc3)c2)o1		inconclusive: 20 µM [cytotoxic, single point]
CC(Cc1ccccc1)NC(=O)c1cc2ccccc2o1 (stereo not given)		inconclusive: 1.03 µM [rising, partial curve, poor fit]
COc1ccc(C)c2sc(N(Cc3cccnc3)C(C)=O)nc12	inactive: -1.98%	
CC(=O)c1c(CC(=O)O)[nH]n(-c2nc3ccccc3s2)c1=O		inconclusive: 18.4 µM [cytotoxic, single point]
COc1ccc(NC(=S)N2CCN(S(=O)(=O)c3ccccc3)CC2)cc1OC		inconclusive: 1.84 µM [rising, partial curve]
